Measurements reported in paper PMC6395731.
These are yes or no findings as the source states them, for the method shown.

Amino acid sequences for entries named in this document (tags omitted). Residues count along the entry.
UniProt P18887, residues 219-415: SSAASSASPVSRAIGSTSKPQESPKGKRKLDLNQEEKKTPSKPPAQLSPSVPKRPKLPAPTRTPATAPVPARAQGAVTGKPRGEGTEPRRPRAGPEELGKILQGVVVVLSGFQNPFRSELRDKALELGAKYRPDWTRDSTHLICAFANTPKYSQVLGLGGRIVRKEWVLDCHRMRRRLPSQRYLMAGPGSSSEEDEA

Molecular target: XRCC1 central DNA binding domain (CDB, residues 219-415) (human) (UniProt P18887)
Assay: SAXS; XRCC1 219-415 alone at 266, 201, 187 and 93 µM in 20 mM Tris pH 8.0, 100 mM KCl, 3 mM 2-mercaptoethanol, 10 °C; molecular weight from the volume of correlation; both purified

Substance: XRCC1 central DNA binding domain (CDB, residues 219-415) (from UniProt P18887 219-415) (domain or fragment)
- binding: no binding (tested: 93-266 µM)
